No constants are given. Whether binding was seen depends on the method and setting. Binding seen in cells or lysates may run through a third protein. Some entries that bind do so weakly or less than the wild type. Where a sequence is shown, tags or fusion partners need not be part of it.
Target: TrkB (tropomyosin related kinase B receptor) fused to an enzyme donor tag, in U2OS-TrkB/p75 PathHunter cells (UniProt Q16620)
Test: split reporter; PathHunter β-galactosidase enzyme fragment complementation in U2OS-TrkA/p75 or U2OS-TrkB/p75 cells (5000 cells per well, 384-well plate, EMEM with 0.5% horse serum); Trk receptor fused to the enzyme donor, SHC-1 to the enzyme acceptor; stimulated with NGF or BDNF; luminescence read-out

Amino acid sequences for entries named in this document (tags omitted). Residues count along the entry.
UniProt Q16620, residues 32-822: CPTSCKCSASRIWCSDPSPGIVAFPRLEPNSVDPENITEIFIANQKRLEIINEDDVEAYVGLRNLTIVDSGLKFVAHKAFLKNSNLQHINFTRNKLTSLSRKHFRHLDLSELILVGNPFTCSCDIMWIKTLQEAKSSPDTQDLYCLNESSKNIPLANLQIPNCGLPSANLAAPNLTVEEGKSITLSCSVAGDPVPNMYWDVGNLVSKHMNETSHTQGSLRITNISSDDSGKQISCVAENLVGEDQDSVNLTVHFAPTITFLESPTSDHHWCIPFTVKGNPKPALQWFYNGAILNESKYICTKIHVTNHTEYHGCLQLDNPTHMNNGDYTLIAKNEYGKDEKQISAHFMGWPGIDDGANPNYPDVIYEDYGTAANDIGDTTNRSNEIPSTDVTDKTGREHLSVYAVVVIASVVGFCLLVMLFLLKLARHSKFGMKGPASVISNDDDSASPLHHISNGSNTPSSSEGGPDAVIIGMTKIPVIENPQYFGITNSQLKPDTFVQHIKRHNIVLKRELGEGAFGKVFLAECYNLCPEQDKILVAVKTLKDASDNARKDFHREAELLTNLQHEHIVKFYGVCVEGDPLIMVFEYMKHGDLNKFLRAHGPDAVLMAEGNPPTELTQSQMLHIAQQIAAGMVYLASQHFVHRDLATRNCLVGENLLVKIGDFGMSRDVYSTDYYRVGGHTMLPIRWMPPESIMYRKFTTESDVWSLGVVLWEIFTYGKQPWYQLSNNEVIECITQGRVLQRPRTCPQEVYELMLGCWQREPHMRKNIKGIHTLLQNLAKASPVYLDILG

B1: SHC-1 fused to the enzyme acceptor (larger part of β-galactosidase), in PathHunter cells (protein, UniProt P29353 1-583)
chain: MDLLPPKPKYNPLRNESLSSLEEGASGSTPPEELPSPSASSLGPILPPLPGDDSPTTLCSFFPRMSNLRLANPAGGRPGSKGEPGRAADDGEGIVGAAMPDSGPLPLLQDMNKLSGGGGRRTRVEGGQLGGEEWTRHGSFVNKPTRGWLHPNDKVMGPGVSYLVRYMGCVEVLQSMRALDFNTRTQVTREAISLVCEAVPGAKGATRRRKPCSRPLSSILGRSNLKFAGMPITLTVSTSSLNLMAADCKQIIANHHMQSISFASGGDPDTAEYVAYVAKDPVNQRACHILECPEGLAQDVISTIGQAFELRFKQYLRNPPKLVTPHDRMAGFDGSAWDEEEEEPPDHQYYNDFPGKEPPLGGVVDMRLREGAAPGAARPTAPNAQTPSHLGATLPVGQPVGGDPEVRKQMPPPPPCPGRELFDDPSYVNVQNLDKARQAVGGAGPPNPAINGSAPRDLFDMKPFEDALRVPPPPQSVSMAEQLRGEPWFHGKLSRREAEALLQLNGDFLVRESTTTPGQYVLTGLQSGQPKHLLLVDPEGVVRTKDHRFESVSHLISYHMDNHLPIISAGSELCLQQPVERKL
binding: binds

From article PMC8391421, “Identification of Novel Positive Allosteric Modulators of Neurotrophin Receptors for the Treatment of Cognitive Dysfunction” (Cells, 2021)
